This note sets out measurements from PubChem BioAssay AID901 (National Center for Advancing Translational Sciences (NCATS), 2007).

Some of the results follow. Shown are side measurements of this screen, not its main read-out; they come without a call. Most of these compounds were active or inconclusive in the main read-out, so they are no random draw. Words in brackets tell the shape of the fitted curve; partial curves, single points and poor fits give uncertain potencies.

The assay can be described thus: qHTS Assay for Identifying the Cell-Membrane Permeable IMPase Inhibitors. The conditions noted are these: CHO-M1 cells, IP1 accumulation, HTRF TR-FRET ratio; measured here: donor channel 620 nm AC50. From the text: NCGC IMPase Assay Overview
Lithium has been widely used for the treatment of bipolar disorder. But lithium has a narrow therapeutic index and it can cause side effects such as thirst, weight gain, tremor, polyuria and memory problems. Although the mechanism for lithium action in treatment of bipolar disorder is still not fully understood, inhibition of inositol monophosphatase (IMPase) and the subsequent depletion of the inositol pool in living cells have been implicated as the primary therapeutic benefit of lithium therapy. Therefore, a selective IMPase inhibitor with reduced side effects might be a good drug candidate to replace lithium for the treatment of bipolar disorder. Several IMPase inhibitors have been discovered previously. However, they are not suitable for therapeutic use because of their poor cell membrane penetrability or oral bioavailability; the development of new cell-permeable IMPase inhibitors is needed.
IMPase catalyzes the hydrolysis of inositol-1-phosphate (IP1) to release free inositol. Binding of an agonist to a Gq coupled GPCR results in the activation of PLC, which hydrolyzes the PIP2 to form inositol-1,4,5-trisphosphate (IP3) and diacyl glycerol (DAG). While DAG activates protein kinase C (PKC), IP3 triggers the elevation of intracellular free Ca2+. The IP3 is very rapidly inactivated by hydrolysis to IP2, IP1 and then inositol by a series of enzymes including IMPase. Free inositols are used for synthesis of PI and thus start another inositol cycle.
To identify new cell-permeable IMPase inhibitors, we developed a cell-based IMPase assay in which the cytosolic IP1 is measured by a time-resolved fluorescence resonance energy transfer (TR-FRET) assay. In this assay, an IP1 specific antibody is used to detect the labeled IP1 tracer. When the cell lysate contains the elevated IP1 due to the inhibition of IMPase, the TR-FRET between the labeled antibody and IP1 tracer is disrupted resulting in a reduction in the total signal. Since the TR-FRET is used, this cell-based assay is a homogenous assay without cell wash and medium change that is suitable for assay miniaturization and HTS.
NCGC IMPase Assay Protocol Summary
A Chinese hamster ovary (CHO) cell line stably expressing the M1 receptor (CHO-M1) was obtained from ATCC and maintained in F-12 Kaighn's media (Invitrogen, Carlsbad, CA, 21127) supplemented with 10 % FBS, 100 units/ml penicillin, 100 ug/ml streptomycin and 250 ug/ml geneticin at 37C, 5% CO2 in a humidified atmosphere. Before the assay, aliquots of cells were frozen and stored at -135C. The assay was performed in 1536-well format. Data are reported for both the ratio of the two emission wavelengths, and also for the component 'donor' channel, Em2=620. […] AC50 values were determined from concentration-response data modeled with the standard Hill equation.
IMPase 1536-well assay protocol:
(1) Plate 4 ul/well (2000 cells) of cell suspension from frozen CHO-M1 Cells in white, tissue culture treated 1536-well plates that are cultured at 37C, 5 % CO2 for 16 to 30 hours.
(2) Add 23 nl/well of compound in DMSO solution. The final titration for each compound was between 0.6 nM and 46 uM.
(3) Add 1 ul of carbachol (50 uM in stimulation buffer containing10mM HEPES, 1mM CaCl2, 0.5 mM MgCl2, 4.2 mM KCl, 146 mM NaCl, 5.5 mM glucose, 50mM LiCl, pH 7.4.
(4) Incubation at 37C, 5 % CO2 for 30 min.
(5) Add 1 ul/well of d2-conjugated IP1 (d2-IP1) and 1 ul/well of Eu+ cryptate conjugated anti-IP1 antibody (Eu+-Ab) prepared in the cell lysis buffer, both from the IP-One kit (Cisbio, MA).
(6) Incubate at room temperature for 10 minutes.
(7) Detect the assay plate (Ex = 320, Em1 =665 and Em2 620) in a ViewLux plate reader.
inositol monophosphatase, IMPase, IMPase inhibitor, lithium, bipolar disorder, IP-One, HTRF, qHTS, NIH roadmap, NCGC
Note: In the gene ID and protein GI references for this assay, rat IMPase is referenced instead of hampster as hamster accession numbers were not available.
(In general: In qHTS, concentration-response curves come from the screen itself.)
For `COc1ccc(CNS(=O)(=O)c2cc(OCC(N)=O)c(C)cc2Cl)cc1`, the AC50 is 20 µM [falling, single point].

As to `Cc1ccc(/C=C(\C#N)c2nc(-c3ccc(-c4ccccc4)cc3)cs2)cc1`, the AC50 is 0.0126 µM [falling, full curve].

As to `Cc1cccc(NC(=O)Cn2c(=O)n(C)c3ccccc32)c1`, the AC50 is 5.01 µM [falling, single point].

In the case of `O=C1C2CCCN2C(c2ccccc2F)N1c1ccc(F)cc1` (configuration not stated), the half-maximal activity concentration (AC50) is 3.16 µM [falling, single point].

Regarding `CN(C)CC(O)COc1cccc(OCC(O)CN(C)C)c1` (configuration not stated), the AC50 was 0.631 µM [rising, single point].

On to `Cc1nc(N2CCN(c3ccccc3)CC2)nc2c1C(=O)CC(c1ccccc1)C2` (configuration not stated), for which the AC50 is 0.0251 µM [rising, full curve, poor fit].

`CCCc1nc(Cl)c(C#N)c2c1CCCC2`: the AC50 is 35.5 µM [rising, single point].

On to `O=C(Cn1nc(-c2ccc(Cl)cc2)c2ccccc2c1=O)NCC1CCCO1` (configuration not stated), for which the AC50 was 3.98 µM [rising, full curve, poor fit].

Consider `O=C1NCC(COCc2ccco2)O1` (configuration not stated), for which the AC50 is 5.01 µM [rising, single point].

Turning to `Cc1cc2c(c(SCC(=O)N(C)c3ccccc3)n1)C(=O)OC2`, the concentration at half-maximal activity (AC50) was 12.6 µM [falling, partial curve, poor fit].

Consider `CCOc1ccc(Cn2nnc(C(=O)NCc3ccc(OC)cc3)c2N)cc1`, for which the concentration at half-maximal activity (AC50) is 35.5 µM [rising, partial curve].

For `Cc1ccc(S(=O)(=O)N2CCN(C(=O)N(c3ccccc3)c3ccccc3)CC2)cc1`, the concentration at half-maximal activity (AC50) is 3.16 µM [falling, single point].

As to `N#Cc1nc(Cc2ccccc2)oc1N1CCN(c2cccc(Cl)c2)CC1`, the concentration at half-maximal activity (AC50) is 15.8 µM [rising, single point].

With `CCOc1ccc(NC(=NCc2ccc3c(c2)OCO3)SC2CC(=O)N(c3ccc(OCC)cc3)C2=O)cc1` (configuration not stated), the half-maximal activity concentration (AC50) was 0.01 µM [rising, full curve, poor fit].

With `O=c1c2oc3ccccc3c2[nH]c(=S)n1-c1ccccc1`, the AC50 was 12.6 µM [rising, partial curve].

Regarding `Cc1ccc(C)c(Nc2nnc(-c3ccc(C)c(S(=O)(=O)NCC4CCCO4)c3)c3ccccc23)c1` (configuration not stated), the concentration at half-maximal activity (AC50) was 0.316 µM [falling, full curve, poor fit].

On to `COc1ccc(-c2[nH]ncc2-c2ccc3c(c2)OCCO3)c(O)c1`, for which the half-maximal activity concentration (AC50) was 0.00794 µM [falling, full curve, poor fit].

In the case of `Cc1ccc(C)c(C(=O)COc2ccccc2[N+](=O)[O-])c1`, the concentration at half-maximal activity (AC50) is 3.16 µM [rising, single point].

As for `Cc1cccn2c(=O)c3cc(C(=O)NCC4CCCO4)c(=N)n(Cc4cccnc4)c3nc12` (configuration not stated), the half-maximal activity concentration (AC50) is 0.631 µM [falling, single point].

Turning to `Cc1cn(S(=O)(=O)c2ccc(Br)c3ccccc23)cn1`, the AC50 was 12.6 µM [rising, partial curve].

For `Cc1ccnc(N2CCC(C(=O)Nc3ccc4c(c3)OCO4)CC2)n1`, the half-maximal activity concentration (AC50) is 3.98 µM [falling, full curve].

For the compound `COc1cccc(C2C(C(=O)c3cc4cccc(OC)c4o3)=C(O)C(=O)N2c2cc(C)on2)c1OC` (configuration not stated), the AC50 is 12.6 µM [rising, partial curve].

For `Cc1ccc(OCC(=O)n2nc(C)cc2C)c(Br)c1`, the AC50 was 1.26 µM [falling, single point].

As for `CCOC(=O)N1CCC(NC(=O)c2cnn3cccnc23)CC1`, the AC50 is 0.158 µM [falling, full curve].

For `O=C(CN1CCc2ccccc2C1)Nc1ccccc1N1CCCCCC1`, the AC50 was 31.6 µM [falling, single point].

In the case of `CC1(C)Cc2c(c(-c3ccco3)nc3n[nH]c(N)c23)CO1`, the concentration at half-maximal activity (AC50) was 0.1 µM [falling, full curve].

With `Cc1cccc2cc(CN(CCCO)C(=O)Nc3cccc(Cl)c3)c(=O)[nH]c12`, the AC50 is 0.0251 µM [rising, full curve, poor fit].

On to `O=C(NC1CCS(=O)(=O)C1)c1cn(-c2ccccc2)nc1-c1ccccc1` (configuration not stated), for which the AC50 is 2.51 µM [rising, partial curve].

Take `C=C(C)Cn1c(=S)[nH]c2ccccc2c1=O`: the AC50 was 0.0141 µM [falling, full curve, poor fit].

For `Clc1cccc(Cl)c1NC1=NCCN1`, the concentration at half-maximal activity (AC50) is 31.6 µM [falling, single point].

For `NC(=O)C1CCN(c2nc(-c3ccccc3)nc3c2oc2ccccc23)CC1`, the AC50 is 31.6 µM [rising, single point].

On to `CN(NC(=O)COc1ccccc1)c1ccccc1`, for which the AC50 is 0.0178 µM [falling, full curve, poor fit].

`CCOC(=O)c1sc(NC(=O)c2cc3n(n2)C(C(F)(F)F)CC(c2ccccc2)N3)c(C(=O)OCC)c1C` (configuration not stated): the AC50 was 0.398 µM [falling, full curve].

As to `Cn1nnnc1SCC(=O)NCc1cccs1`, the AC50 was 15.8 µM [falling, single point].

Regarding `CCn1c(O)c(/C=N/n2cnnc2)sc1=S`, the AC50 was 0.282 µM [falling, partial curve, poor fit].

On to `CCOC(=O)c1c(NC(=O)C2CCCO2)sc2c1CCC2` (configuration not stated), for which the AC50 was 0.00398 µM [rising, full curve, poor fit].

For the compound `O=C(C1CCN(S(=O)(=O)c2ccc3ccccc3c2)CC1)N1CCN(c2ncccn2)CC1`, the half-maximal activity concentration (AC50) is 0.251 µM [falling, partial curve].

Consider `O=C(Nc1cc(C(F)(F)F)ccc1N1CCOCC1)c1ccc[n+]([O-])c1`, for which the AC50 was 3.16 µM [falling, full curve].

On to `COC(=O)C1=CN(C)C=C(C(=O)OC)C1c1ccccc1Cl`, for which the concentration at half-maximal activity (AC50) was 0.126 µM [falling, full curve, poor fit].

As for `Cn1ncc(Br)c1C(=O)N/N=C/c1ccc(OS(=O)(=O)c2ccccc2)cc1`, the AC50 was 0.158 µM [falling, partial curve].

Regarding `Cc1ccc(C)c(N2CCN(C(=O)CCS(=O)(=O)c3cc(Br)cc4c3N(C(=O)C3CC3)CC4)CC2)c1`, the half-maximal activity concentration (AC50) is 35.5 µM [falling, single point].

With `CCCCNC(=O)CCn1nc(-c2ccc(Cl)cc2)c2ccccc2c1=O`, the AC50 is 0.0501 µM [falling, full curve, poor fit].

Usually AC50 stands for the concentration at which the activity in the assay is half-maximal.
